According to PMC4364537:
No constants are given. Whether binding was seen depends on the method and setting.

Biological target: choline kinase LicA from Streptococcus pneumoniae R6 (Streptococcus pneumoniae R6)
Assay: SEC; gel-filtration chromatography of purified LicA, with a standard curve (S1 Fig.); both purified

choline kinase LicA from Streptococcus pneumoniae R6 (from UniProt A0ACD7PS89 1-289) (enzyme)
binding: no binding
